Results are given in words; binding and its absence hold for the method and conditions named. In cells and extracts the contact can be indirect. Some results given as binding are weak or reduced against the parent protein; the word gives no strength. Where a sequence is shown, tags or fusion partners need not be part of it. Each block holds one molecule with its values, some of them ahead of it.
Columns and labels:
[1] = target: T1, TRIP4 (TR-interacting protein 4 / ASC-1), 3xFLAG-tagged (human) (UniProt Q15650); experiment: co-IP; one FLAG-tagged bait overexpressed with the other proteins HA-tagged in HEK293T; lysate in LB100 (50 mM Tris-HCl pH 7.5, 100 mM NaCl, 10 mM MgCl2, 2% NP-40); anti-FLAG antibody beads, eluted with FLAG peptide, blots anti-FLAG and anti-HA; ASCC3, ASCC2 and TRIP4 also in KD control and ASCC1 knock-down cells (Fig. 4B-D)
T1 sequence: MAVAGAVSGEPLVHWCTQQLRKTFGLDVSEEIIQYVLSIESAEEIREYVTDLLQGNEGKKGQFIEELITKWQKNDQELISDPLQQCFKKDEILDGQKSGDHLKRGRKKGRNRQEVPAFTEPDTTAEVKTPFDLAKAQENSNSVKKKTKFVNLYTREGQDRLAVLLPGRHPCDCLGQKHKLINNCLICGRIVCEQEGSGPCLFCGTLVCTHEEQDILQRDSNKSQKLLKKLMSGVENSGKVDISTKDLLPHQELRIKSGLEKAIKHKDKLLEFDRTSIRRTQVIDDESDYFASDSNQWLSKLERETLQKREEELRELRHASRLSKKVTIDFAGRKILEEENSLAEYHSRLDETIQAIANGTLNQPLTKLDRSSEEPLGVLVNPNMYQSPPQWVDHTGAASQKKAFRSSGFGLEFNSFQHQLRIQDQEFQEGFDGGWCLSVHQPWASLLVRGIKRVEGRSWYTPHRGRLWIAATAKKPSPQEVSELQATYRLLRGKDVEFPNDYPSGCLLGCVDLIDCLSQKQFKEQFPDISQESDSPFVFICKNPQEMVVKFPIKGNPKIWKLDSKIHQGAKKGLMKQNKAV

Sequences of proteins named here, by UniProt entry; tags and fusion partners are left off. A change or cut given only in a name is not applied to a line headed by its entry. A line that says so, or that is headed by a name, gives the form on record, which may keep a tag or linker.
ASCC1, 3xFLAG-tagged (Q8N9N2-2, form named): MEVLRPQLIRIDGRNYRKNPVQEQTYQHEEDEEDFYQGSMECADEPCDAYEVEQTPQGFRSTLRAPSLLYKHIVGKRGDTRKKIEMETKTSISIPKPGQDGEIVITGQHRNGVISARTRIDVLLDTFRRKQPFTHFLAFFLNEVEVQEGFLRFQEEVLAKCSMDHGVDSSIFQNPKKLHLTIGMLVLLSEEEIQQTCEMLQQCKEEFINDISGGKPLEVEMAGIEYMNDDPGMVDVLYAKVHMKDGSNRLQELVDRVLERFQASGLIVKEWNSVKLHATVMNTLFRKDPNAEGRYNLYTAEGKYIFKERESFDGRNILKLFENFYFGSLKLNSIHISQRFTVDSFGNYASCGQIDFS
UniProt Q8N3C0: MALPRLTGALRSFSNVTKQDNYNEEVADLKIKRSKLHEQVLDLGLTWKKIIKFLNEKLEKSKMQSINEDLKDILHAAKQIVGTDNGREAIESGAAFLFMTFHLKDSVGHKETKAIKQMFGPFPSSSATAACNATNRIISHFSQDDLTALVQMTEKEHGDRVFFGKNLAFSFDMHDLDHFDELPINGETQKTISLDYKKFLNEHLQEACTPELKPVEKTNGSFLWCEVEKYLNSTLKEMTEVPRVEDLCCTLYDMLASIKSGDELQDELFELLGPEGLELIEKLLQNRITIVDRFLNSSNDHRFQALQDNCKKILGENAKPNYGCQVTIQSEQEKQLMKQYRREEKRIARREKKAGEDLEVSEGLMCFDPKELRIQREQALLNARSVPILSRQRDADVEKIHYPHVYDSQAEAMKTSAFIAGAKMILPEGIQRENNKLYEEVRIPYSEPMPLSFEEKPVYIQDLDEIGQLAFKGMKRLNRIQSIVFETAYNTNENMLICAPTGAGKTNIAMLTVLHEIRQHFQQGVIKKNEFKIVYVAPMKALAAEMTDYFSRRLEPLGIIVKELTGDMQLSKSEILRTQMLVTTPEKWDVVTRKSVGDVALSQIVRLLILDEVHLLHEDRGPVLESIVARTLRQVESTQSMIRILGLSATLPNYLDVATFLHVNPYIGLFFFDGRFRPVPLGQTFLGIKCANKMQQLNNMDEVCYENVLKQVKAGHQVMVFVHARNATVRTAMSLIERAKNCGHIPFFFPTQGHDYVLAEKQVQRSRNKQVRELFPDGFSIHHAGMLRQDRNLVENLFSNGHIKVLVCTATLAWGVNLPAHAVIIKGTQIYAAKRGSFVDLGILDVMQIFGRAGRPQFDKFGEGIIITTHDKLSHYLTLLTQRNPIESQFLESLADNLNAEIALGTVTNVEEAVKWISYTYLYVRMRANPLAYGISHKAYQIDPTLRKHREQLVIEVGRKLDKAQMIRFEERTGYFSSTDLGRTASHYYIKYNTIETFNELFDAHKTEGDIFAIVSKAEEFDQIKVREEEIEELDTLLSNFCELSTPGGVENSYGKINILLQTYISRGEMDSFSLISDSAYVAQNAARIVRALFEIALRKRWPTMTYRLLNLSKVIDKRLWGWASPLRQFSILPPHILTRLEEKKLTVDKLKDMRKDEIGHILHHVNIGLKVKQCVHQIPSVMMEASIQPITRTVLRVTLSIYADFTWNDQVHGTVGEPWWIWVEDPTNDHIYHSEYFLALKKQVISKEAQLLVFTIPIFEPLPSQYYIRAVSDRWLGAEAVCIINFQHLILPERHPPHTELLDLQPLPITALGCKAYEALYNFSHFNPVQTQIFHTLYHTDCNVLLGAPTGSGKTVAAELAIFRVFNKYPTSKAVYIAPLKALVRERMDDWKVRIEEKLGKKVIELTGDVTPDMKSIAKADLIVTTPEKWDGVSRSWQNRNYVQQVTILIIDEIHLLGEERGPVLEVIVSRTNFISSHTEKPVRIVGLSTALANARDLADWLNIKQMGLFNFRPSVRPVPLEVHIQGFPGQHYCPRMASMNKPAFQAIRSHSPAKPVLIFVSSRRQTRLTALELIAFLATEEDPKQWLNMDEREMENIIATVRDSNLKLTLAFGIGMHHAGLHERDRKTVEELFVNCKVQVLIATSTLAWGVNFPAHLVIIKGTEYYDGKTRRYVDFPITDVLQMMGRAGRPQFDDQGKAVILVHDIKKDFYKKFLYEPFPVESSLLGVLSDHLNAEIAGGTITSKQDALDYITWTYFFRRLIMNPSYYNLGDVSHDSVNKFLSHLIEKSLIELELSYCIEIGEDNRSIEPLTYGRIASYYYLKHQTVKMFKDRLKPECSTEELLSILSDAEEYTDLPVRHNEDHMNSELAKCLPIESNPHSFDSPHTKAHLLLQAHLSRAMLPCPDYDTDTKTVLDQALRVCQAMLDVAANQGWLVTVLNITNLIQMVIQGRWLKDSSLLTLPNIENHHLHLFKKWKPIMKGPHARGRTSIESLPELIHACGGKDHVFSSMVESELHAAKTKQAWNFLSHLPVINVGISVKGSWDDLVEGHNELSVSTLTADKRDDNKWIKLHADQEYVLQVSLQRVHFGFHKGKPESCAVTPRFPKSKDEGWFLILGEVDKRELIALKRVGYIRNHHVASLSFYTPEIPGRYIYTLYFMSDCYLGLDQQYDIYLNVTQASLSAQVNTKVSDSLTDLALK

[2] = target: ASCC1, 3xFLAG-tagged (human) (UniProt Q8N9N2); experiment: as above
[3] = target: T2, ASCC2, 3xFLAG-tagged (human) (UniProt Q9H1I8); experiment: as above
T2 sequence: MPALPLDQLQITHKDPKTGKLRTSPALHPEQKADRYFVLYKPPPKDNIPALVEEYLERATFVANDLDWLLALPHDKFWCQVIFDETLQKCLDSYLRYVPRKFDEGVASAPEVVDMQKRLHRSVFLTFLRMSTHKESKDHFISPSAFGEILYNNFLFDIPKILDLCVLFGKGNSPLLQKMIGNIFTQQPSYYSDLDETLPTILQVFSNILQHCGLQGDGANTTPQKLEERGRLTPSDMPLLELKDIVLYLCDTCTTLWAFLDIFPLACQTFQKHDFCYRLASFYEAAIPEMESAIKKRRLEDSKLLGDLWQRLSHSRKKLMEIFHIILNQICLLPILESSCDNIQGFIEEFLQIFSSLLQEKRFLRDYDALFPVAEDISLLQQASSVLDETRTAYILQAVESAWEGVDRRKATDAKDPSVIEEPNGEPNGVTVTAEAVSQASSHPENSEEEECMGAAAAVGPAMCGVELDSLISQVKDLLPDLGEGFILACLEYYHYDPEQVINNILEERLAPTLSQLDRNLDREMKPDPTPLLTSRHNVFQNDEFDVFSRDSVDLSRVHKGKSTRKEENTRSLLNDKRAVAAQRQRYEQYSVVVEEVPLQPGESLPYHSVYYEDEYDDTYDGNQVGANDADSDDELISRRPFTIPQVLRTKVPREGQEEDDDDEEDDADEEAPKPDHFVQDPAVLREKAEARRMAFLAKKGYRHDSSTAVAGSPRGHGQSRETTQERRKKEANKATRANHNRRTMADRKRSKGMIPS

[4] = target: activating signal cointegrator 3 (ASCC3), 3xFLAG-tagged (human) (UniProt Q8N3C0); experiment: as above
FLAG-ASCC3-WT (human) = FLAG-ASCC3-WT (human) (UniProt Q8N3C0); experiment: co-IP; only HA-ASCC2 (WT or Ub-m) and FLAG-ASCC3 (WT or K505R) co-transfected into HEK293T; anti-FLAG antibody beads, eluted with FLAG peptide, blots anti-FLAG and anti-HA
[5] = target: activating signal cointegrator 3 (ASCC3), 3xFLAG-tagged (human) (UniProt Q8N3C0); experiment: as above
[6] = target: FLAG-ASCC3 K505R mutant (human) (UniProt Q8N3C0); experiment: as above

binding [1]: binds
binding [2]: binds
binding [3]: binds
Molecule: activating signal cointegrator 3 (ASCC3), HA-tagged (from UniProt Q8N3C0-1 1-2202)

binding [4]: binds
binding [1]: binds
binding [3]: binds
Molecule: ASCC1, HA-tagged (from UniProt Q8N9N2-2 1-357)

binding [4]: binds
binding [1]: binds
binding [2]: binds
binding (FLAG-ASCC3-WT (human)): binds
binding [5]: binds
binding [6]: binds
B1: ASCC2, HA-tagged (protein, UniProt Q9H1I8-1 1-757)
chain: T2 sequence

binding [4]: binds
binding [2]: binds
binding [3]: binds
B2: TRIP4 (TR-interacting protein 4 / ASC-1), HA-tagged (protein, UniProt Q15650 1-581)
chain: T1 sequence
